Laboratory results as given in patent US5547962A, “5-amino-8-methyl-7-pyrrolidinylquinoline-3-carboxylic acid derivative” (priority 1993, dated 1996).

Tested on: Male Hartley guinea pigs
Type: in vivo
Settings: 10 mg/kg i.v., UVA 90 minutes, 24 h after irradiation
Description: Male Hartley guinea pigs were intravenously administered test compounds at a dose of 10 mg/kg, and immediately exposed to UVA on their backs for 90 minutes. Erythemas on the backs were observed 24 h after UVA irradiation.

SMILES: O=C(O)c1cn(C2CC2)c2cc(N3CCNCC3)c(F)cc2c1=O [Ciprofloxacin, ciprofloxacin]
- Phototoxicity: number of animals with erythemas/number of animals tested: 3/5
